From patent US9664696B1, “Compounds for determining the presence of hydrogen sulfide and methods of use” (University of Oregon, priority 2013, dated 2017)

Experiment: Chemiluminescent H2S detection limit (HRP/H2O2/p-iodophenol)
Settings: 1 hour incubation, p-iodophenol enhancer
Procedure: In a septum-sealed cuvette, a solution of the compound (50 μM) and the desired reactive species was incubated in PIPES buffer (50 mM PIPES, 100 mM KCl, pH 7.4) for 60 minutes at 37.0° C. After incubation, 40 μL of 6 M NaOH was added to increase the pH to an optimal level for luminol chemiluminescence. After pH adjustment, 10 μL of 10 U/mL Horseradish Peroxidase (HRP) with 0.2 μM p-iodophenol was added. A background reading was acquired for 60 seconds, after which 50 μL of H2O2 (35%) was added. The sample luminosity at 425 nm was integrated for 300 s after H2O2 addition. The data reported are the average of at least three independent experiments. […]
Following the H2S-derived chemiluminescent response of both chemiluminescent compound precursor 200 and chemiluminescent compound precursor 202, the detection limit of each chemiluminescent compound precursor for H2S was determined. After incubating each chemiluminescent compound precursor for 1 hour for different H2S concentrations, the chemiluminescent response was measured after treatment with H2O2/HRP using p-iodophenol as an enhancer. […] Based on the concentration-dependent H2S response and the instrumental background measurements, the H2S detection limit (3σ) of chemiluminescent compound precursor 200 and chemiluminescent compound precursor 202 was determined to be 0.7±0.3 μM and 4.6±2.0 μM, respectively. […]

Structure (SMILES) | H2S detection limit (3σ) [µM]
[N-]=[N+]=Nc1cccc2c(=O)[nH][nH]c(=O)c12 [compound 200, 3-Azidophthalhydrazide] | 0.7 ± 0.3
[N-]=[N+]=Nc1ccc2c(=O)[nH][nH]c(=O)c2c1 [compound 202, 4-Azidophthalhydrazide] | 4.6 ± 2.0
